Measurements published in publication PMC7956269.
Results are given in words; binding and its absence hold for the method and conditions named. In cells and extracts the contact can be indirect. Some entries that bind do so weakly or less than the wild type. Sequences can lack the tags named with a protein.

Molecular target: 3*Flag-FOXC1 (mouse) (UniProt Q61572)
Assay: co-IP; HEK293T cells co-transfected; lysate in Pierce IP Lysis Buffer; anti-Flag antibody (IgG as control), protein A/G agarose, 4 °C; blots with anti-GFP and anti-HA

- binding: binds
B1: HA-UHRF1 (protein, UniProt Q8VDF2 1-782)
chain: MWIQVRTMDGKETHTVNSLSRLTKVQELRKKIEEVFHVEPQLQRLFYRGKQMEDGHTLFDYDVRLNDTIQLLVRQSLALPLSTKERDSELSDSDSGYGVGHSESDKSSTHGEGAAEADDKTVWEDTDLGLYKVNEYVDVRDNIFGAWFEAQVVQVQKRALSEDEPCSSSAVKTSEDDIMYHVKYDDYPEHGVDIVKAKNVRARARTVIPWENLEVGQVVMANYNVDYPRKRGFWYDVEICRKRQTRTARELYGNIRLLNDSQLNNCRIMFVDEVLMIELPKERRPLIASPSQPPPALRNTGKSGPSCRFCKDDENKPCRKCACHVCGGREAPEKQLLCDECDMAFHLYCLKPPLTSVPPEPEWYCPSCRTDSSEVVQAGEKLKESKKKAKMASATSSSRRDWGKGMACVGRTTECTIVPANHFGPIPGVPVGTMWRFRVQVSESGVHRPHVAGIHGRSNDGAYSLVLAGGYEDDVDNGNYFTYTGSGGRDLSGNKRTAGQSSDQKLTNNNRALALNCHSPINEKGAEAEDWRQGKPVRVVRNMKGGKHSKYAPAEGNRYDGIYKVVKYWPERGKSGFLVWRYLLRRDDTEPEPWTREGKDRTRQLGLTMQYPEGYLEALANKEKSRKRPAKALEQGPSSSKTGKSKQKSTGPTLSSPRASKKSKLEPYTLSEQQANLIKEDKGNAKLWDDVLTSLQDGPYQIFLSKVKEAFQCICCQELVFRPVTTVCQHNVCKDCLDRSFRAQVFSCPACRFELDHSSPTRVNQPLQTILNQLFPGYGSGR
